Record: PubChem BioAssay AID602196 (INSERM, 2012)

Aim: 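Genes whose knock-down alters cisplatin killing of lung cancer cells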
System: human A549 lung cancer cells
Reagent: siRNA pair against human genes
Timing: 48 h transfection before cisplatin; time from cisplatin to read-out not stated
Treatment: cisplatin at a dose killing half of control-siRNA cells; exact dose and duration not given
Measurement: 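Cisplatin cell death as a shift from the 50% death seen with control siRNA; siRNAs toxic or growth-blocking alone scored 0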
Reading the numbers: two-siRNA summed score (-2 to +2): higher = both siRNAs protect from cisplatin killing; -2 means both sensitise
Hit rule: 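Each siRNA scores 0 if harmful alone by LDH or WST-1, otherwise +1 if it reduces and -1 if it increases cisplatin killing; a gene is active when both siRNAs agree (sum +2 or -2)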
Meaning of the calls: active = both siRNAs shift cisplatin killing the same way; inactive = no consistent shift, or siRNA harmful alone
Shown is an unselected part of about 23,000 reagents tested. 455 of them (2%) count as active. 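Active includes both protection and sensitisation; some change values fall well beyond the stated -50 to +50 range.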 A number with no mark means an inactive call. Not all columns of the deposit are shown. Not given: the amount of reagent.

PIN4 (peptidylprolyl cis/trans isomerase, NIMA-interacting 4): two-siRNA summed score (-2 to +2) = 1
TMEM105 (TMEM105 long non-coding RNA): two-siRNA summed score (-2 to +2) = 0
LOC390594: two-siRNA summed score (-2 to +2) = 0
LOC442530: two-siRNA summed score (-2 to +2) = 0
CKAP2 (cytoskeleton associated protein 2): two-siRNA summed score (-2 to +2) = -2 (active)
ANAPC13 (anaphase promoting complex subunit 13): two-siRNA summed score (-2 to +2) = 0
CCDC91 (coiled-coil domain containing 91): two-siRNA summed score (-2 to +2) = 0
PSENEN (presenilin enhancer, gamma-secretase subunit): two-siRNA summed score (-2 to +2) = 0
ZNF25 (zinc finger protein 25): two-siRNA summed score (-2 to +2) = 0
PMP22 (peripheral myelin protein 22): two-siRNA summed score (-2 to +2) = 0
MYO1D (myosin ID): two-siRNA summed score (-2 to +2) = 0
DCBLD1 (discoidin, CUB and LCCL domain containing 1): two-siRNA summed score (-2 to +2) = 0

Single entries from the list.
DCBLD1 (discoidin, CUB and LCCL domain containing 1), two-siRNA summed score (-2 to +2) = 0
Under “two-siRNA summed score (-2 to +2)”, PSENEN (presenilin enhancer, gamma-secretase subunit) reads 0
